Test results: article PMC9426557
These are yes or no findings as the source states them, for the method shown. Binding seen in cells or lysates may run through a third protein. Binding calls can cover weak binding; strength is not graded here. For part of these data: Tags and fused reporters may be left off the sequences shown.

By UniProt entry, the sequences of proteins in these tests, tags left out. Where a name states a change or a piece, a line headed by the entry shows the natural chain unless it says otherwise.
UniProt Q1K8X0: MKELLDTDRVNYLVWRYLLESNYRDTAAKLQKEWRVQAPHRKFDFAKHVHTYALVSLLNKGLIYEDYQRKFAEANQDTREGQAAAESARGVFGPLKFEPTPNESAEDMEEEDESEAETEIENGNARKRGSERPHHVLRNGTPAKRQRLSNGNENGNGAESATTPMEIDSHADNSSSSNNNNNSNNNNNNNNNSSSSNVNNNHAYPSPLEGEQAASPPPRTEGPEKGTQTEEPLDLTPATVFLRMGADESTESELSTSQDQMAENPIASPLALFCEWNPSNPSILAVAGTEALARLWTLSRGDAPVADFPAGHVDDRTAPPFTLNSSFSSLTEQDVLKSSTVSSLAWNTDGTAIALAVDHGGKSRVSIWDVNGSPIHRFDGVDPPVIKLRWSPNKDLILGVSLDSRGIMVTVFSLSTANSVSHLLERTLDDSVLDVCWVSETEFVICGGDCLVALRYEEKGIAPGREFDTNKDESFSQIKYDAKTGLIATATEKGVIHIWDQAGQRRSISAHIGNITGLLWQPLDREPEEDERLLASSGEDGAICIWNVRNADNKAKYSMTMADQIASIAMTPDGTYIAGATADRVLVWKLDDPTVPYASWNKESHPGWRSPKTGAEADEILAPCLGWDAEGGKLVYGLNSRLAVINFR

Key:
[1] = biological target: SIF-2 (endogenous) (Neurospora crassa (endogenous in N. crassa mycelium)) (UniProt Q1K8X0); assay: co-IP; N. crassa WT-strain cell extracts with ectopic Myc-tagged protein, precipitated with anti-HDA-2 or anti-SIF-2 antibody, protein G-Sepharose; eluates blotted with anti-Myc and anti-HDA-2 or anti-SIF-2
[2] = biological target: T1, HDA-2 (histone deacetylase 2, endogenous) (Neurospora crassa (endogenous in N. crassa mycelium)) (UniProt Q7SEL7); assay: as above
T1 sequence: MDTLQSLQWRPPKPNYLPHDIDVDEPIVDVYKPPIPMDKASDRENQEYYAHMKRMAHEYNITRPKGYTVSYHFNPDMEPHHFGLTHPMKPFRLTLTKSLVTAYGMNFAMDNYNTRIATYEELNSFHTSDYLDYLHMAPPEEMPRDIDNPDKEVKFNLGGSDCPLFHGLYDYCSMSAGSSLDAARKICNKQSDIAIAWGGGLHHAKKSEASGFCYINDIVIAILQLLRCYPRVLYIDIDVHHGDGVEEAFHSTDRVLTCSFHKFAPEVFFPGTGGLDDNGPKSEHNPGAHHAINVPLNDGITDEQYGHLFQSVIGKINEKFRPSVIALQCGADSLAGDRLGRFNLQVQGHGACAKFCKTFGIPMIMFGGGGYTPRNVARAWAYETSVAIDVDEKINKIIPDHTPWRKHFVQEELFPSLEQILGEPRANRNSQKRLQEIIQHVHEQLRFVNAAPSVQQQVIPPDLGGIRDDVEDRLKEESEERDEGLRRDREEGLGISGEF

[3] = biological target: T2, Myc-HDA-2 (histone deacetylase 2, 5Myc-6×His-HDA-2) (Neurospora crassa) (UniProt Q7SEL7); assay: co-IP; N. crassa cell extracts (4 mg/mL) incubated with monoclonal anti-c-Myc antibody 4 h at 4°C, protein G-Sepharose; eluates blotted with anti-SIF-2 or anti-HDA-2 and anti-Myc
T2 sequence: T1 sequence

Row | binding [1] | binding [2] | binding [3] | Substance
1 | binds | binds | – | Myc-YIL112w (from UniProt Q7RYS2)
2 | – | – | binds | SIF-2 (endogenous) (from UniProt Q1K8X0)
